PubChem BioAssay AID1053208 | Peter MacCallum Cancer Centre | 2014

- Test: 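Genes whose silencing cuts survival of bone tumour cells only with doxorubicin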 (primary screen)
- Cell system: mouse osteosarcoma cells, early-passage culture from an engineered mouse model of fibroblastic bone tumour
- Reagent: siRNA pool against mouse genes, 40 nM
- Time to read-out: about 120 h (48 h before drug, then 72 h with drug)
- Treatment: doxorubicin 100 nM for 72 h, roughly 30-40% inhibitory dose
- Measurement: 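Viability read as ATP luminescence after 72 h of 100 nM doxorubicin or none, duplicate wells averaged, scaled to non-targeting siRNA, then expressed as robust z-scores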
- Reading the numbers: viability z-score with doxorubicin: higher = more viable cells under doxorubicin; viability z-score without drug: higher = more viable cells with knock-down alone
- Active means: 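a pool counts as active when its viability z-score with doxorubicin is -2 or below and its z-score without drug lies between -2 and 2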
The deposit covers about 17,000 reagents; shown is an unselected part. Of all reagents, 788 (4.7%) are marked active. 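Calls rest on z-score classes alone; an extra cut-off of viability at most 70% of control was not applied to them.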 Entries without a mark were called inactive. Further read-outs or replicates are left out here.

With knock-down of Gpr87 the results were combined z-score class no change with or without drug; viability z-score with doxorubicin 0.9; viability z-score without drug 0.51.
Ly6g6c showed combined z-score class no change with or without drug; viability z-score with doxorubicin 0.79; viability z-score without drug -0.51.
Depletion of Vwa3a gave: combined z-score class no change with or without drug; viability z-score with doxorubicin -0.45; viability z-score without drug 0.
Cftr scored combined z-score class no change with or without drug; viability z-score with doxorubicin 0.22; viability z-score without drug 0.17.
Trip6 gave combined z-score class no change with or without drug; viability z-score with doxorubicin -1.57; viability z-score without drug -0.51.
Trim37 showed combined z-score class no change with or without drug; viability z-score with doxorubicin -0.67; viability z-score without drug 1.18.
Spag6l showed combined z-score class no change with or without drug; viability z-score with doxorubicin 0.22; viability z-score without drug -0.67.
Knock-down of Svopl resulted in: combined z-score class no change with or without drug; viability z-score with doxorubicin -1.57; viability z-score without drug 0.
Eef1g showed combined z-score class no change with or without drug; viability z-score with doxorubicin -0.9; viability z-score without drug -1.52.
With knock-down of Adgra2, the screen gave combined z-score class no change with or without drug; viability z-score with doxorubicin -0.22; viability z-score without drug -1.18.
Mgat5b showed combined z-score class no change with or without drug; viability z-score with doxorubicin 0.9; viability z-score without drug 0.51.
Silencing of Paqr9 came out at: combined z-score class high cell count without drug only; viability z-score with doxorubicin 0.22; viability z-score without drug 2.53.
Against Slc2a4 the deposit lists combined z-score class no change with or without drug; viability z-score with doxorubicin -0.56; viability z-score without drug 0.51.
Against Grin2b, the values are combined z-score class no change with or without drug; viability z-score with doxorubicin 0.67; viability z-score without drug -1.35.
With knock-down of Myf5, the screen gave combined z-score class no change with or without drug; viability z-score with doxorubicin 1.12; viability z-score without drug 0.17.

2 entries from above, arranged by “viability z-score with doxorubicin”, descending:
Myf5: combined z-score class = no change with or without drug; viability z-score with doxorubicin = 1.12; viability z-score without drug = 0.17
Grin2b: combined z-score class = no change with or without drug; viability z-score with doxorubicin = 0.67; viability z-score without drug = -1.35

More entries follow.
With knock-down of Ncaph, the record shows combined z-score class no change with or without drug; viability z-score with doxorubicin -0.79; viability z-score without drug -0.84.
Tpst2 gave combined z-score class no change with or without drug; viability z-score with doxorubicin 0.45; viability z-score without drug 0.51.
Rab23 scored combined z-score class no change with or without drug; viability z-score with doxorubicin -0.11; viability z-score without drug 0.67.
Depletion of Bex3 came out at: combined z-score class no change with or without drug; viability z-score with doxorubicin 1.57; viability z-score without drug -0.51.
For Gtf3c4, the values are combined z-score class no change with or without drug; viability z-score with doxorubicin 1.12; viability z-score without drug 0.17.
Silencing of Ikzf5 gave: combined z-score class high cell count with and without drug; viability z-score with doxorubicin 2.47; viability z-score without drug 2.36.
After knock-down of Or10d4c, the record shows combined z-score class low cell count with and without drug; viability z-score with doxorubicin -2.25; viability z-score without drug -2.19.
Against Cep68, the values are combined z-score class no change with or without drug; viability z-score with doxorubicin -0.45; viability z-score without drug -1.52.
With knock-down of Egr1, the record shows combined z-score class no change with or without drug; viability z-score with doxorubicin 0.11; viability z-score without drug 0.51.
For Or4a73, the values are combined z-score class no change with or without drug; viability z-score with doxorubicin 1.57; viability z-score without drug -0.51.
Knock-down of Mpv17l came out at: combined z-score class no change with or without drug; viability z-score with doxorubicin -0.45; viability z-score without drug -1.01.
Against Gpr137c, the entry reads combined z-score class no change with or without drug; viability z-score with doxorubicin -0.45; viability z-score without drug 0.51.
Lmbrd2 scored combined z-score class high cell count with and without drug; viability z-score with doxorubicin 2.02; viability z-score without drug 2.19.
